Laboratory results as given in PubChem BioAssay AID1671190 (National Center for Advancing Translational Sciences (NCATS), 2021).
“And” between values parts separate entries of the source, which are not always exact repeats. Identical values can stand only once. Out of some 580,000 compounds screened, about 6,100 (1.1%) were called active. The inconclusive results got no clear call from the source; some entries with a clear call stand among them for comparison. The call rests on the fitted dose curve; in most records, active means well fitted inhibition curve with a large enough effect; inconclusive means small, poorly fitted or top-dose-only effect, or another doubt; inactive means no such curve, though single readings can be large or run the other way. Potencies of inconclusive entries are doubtful fits and often do not repeat.

Amino acid sequences for entries named in this document (tags omitted). A change or cut given only in a name is not applied to a line headed by its entry.
UniProt P18054: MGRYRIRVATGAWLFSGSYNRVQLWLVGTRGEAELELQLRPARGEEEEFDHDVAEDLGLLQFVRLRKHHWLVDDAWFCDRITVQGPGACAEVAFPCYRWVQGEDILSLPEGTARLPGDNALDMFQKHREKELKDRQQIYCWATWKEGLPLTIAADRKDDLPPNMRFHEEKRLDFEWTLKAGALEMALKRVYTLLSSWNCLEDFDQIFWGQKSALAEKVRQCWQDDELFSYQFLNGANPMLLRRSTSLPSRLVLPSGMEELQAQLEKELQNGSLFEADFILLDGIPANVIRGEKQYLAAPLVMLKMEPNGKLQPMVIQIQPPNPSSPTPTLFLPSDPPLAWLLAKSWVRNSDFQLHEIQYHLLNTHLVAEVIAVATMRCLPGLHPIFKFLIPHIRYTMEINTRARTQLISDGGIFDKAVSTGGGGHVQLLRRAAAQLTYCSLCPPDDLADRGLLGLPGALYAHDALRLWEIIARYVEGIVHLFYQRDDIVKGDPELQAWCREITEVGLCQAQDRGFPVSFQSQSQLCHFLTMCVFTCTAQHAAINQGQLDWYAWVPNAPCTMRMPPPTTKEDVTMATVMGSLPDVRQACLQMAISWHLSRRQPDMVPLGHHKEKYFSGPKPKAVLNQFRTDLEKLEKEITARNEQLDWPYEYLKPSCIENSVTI

These compounds were tested against Polyunsaturated fatty acid lipoxygenase ALOX12 (Homo sapiens) (UniProt P18054) (assay: Primary qHTS assay for inhibitors of human arachidonate 12S-lipoxygenase (ALOX12): Round 2). Conditions: purified 12hLO, xylenol orange hydroperoxide absorbance; activity change, negative = inhibition: at 108 µM (top of the series) unless noted.
In short: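 Purified human 12hLO at 150 nM in 25 mM Hepes, 0.01% Triton X-100, pH 7.0, preincubated 15 min at room temperature with compound. Reaction started with 40 uM arachidonic acid, 30 min at room temperature. Hydroperoxide measured by Fe-xylenol orange, 573/405 nm absorbance ratio.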
On the % scale 0 is the no-effect control and ±100 the full control effect; potency means the concentration at half of the fitted maximal effect.

SMILES | Potency | activity change, negative = inhibition
COC(=O)c1c(C)cccc1NCC(=O)NC(=O)NC1CC1 | inactive | 
CCC(C(=O)NCc1ccc(OC)cc1)n1nc(C)n2c(cc3occc32)c1=O (stereo not given) | inconclusive: 56.2 µM [inhibitor, partial curve, poor fit] | 
O=C(c1cccs1)N(C(=O)c1cccs1)c1ccc(Br)cn1 |  | inconclusive: -30.9% [inhibitor]
CSc1ccccc1C(=O)Nc1nc2ccccc2c(=O)[nH]1 | inconclusive: 50.1 µM [inhibitor, single point] | 
COc1ccc(C(=O)NC(=O)Nc2cc(C)ccn2)cc1 | inactive | 
Cc1ccc(/C=C(/C#N)C(=O)c2ccsc2)cc1C | inconclusive: 3.98 µM [inhibitor, full curve] | 
CCOC(=O)N1CCc2c(sc(NC(=O)CN(CC)CC)c2C#N)C1 | inconclusive: 31.6 µM [inhibitor, single point] | 
CCN(CC)C1=CC(=[N+]2CCCC2)CC(C)(C)C1 | inconclusive: 100 µM [inhibitor, partial curve, poor fit] | 
N#CCSc1nnc2sc3ccccc3n12 | inactive | 
Cc1ccc(OCC(=O)Nc2ccc3oc(-c4ccccc4F)nc3c2)c(-n2cnnc2)c1 | inconclusive: 44.7 µM [inhibitor, partial curve, poor fit] | 
C=CCN1C(=O)[C@H]2CCC=C[C@H]2[C@@H]1c1cccc(C)c1 | inconclusive: 2.51 µM [inhibitor, full curve, poor fit] | 
COc1ccc(CC(=O)Nc2sc3c(c2C(=O)Nc2ccccc2)CCCCC3)cc1 | inactive | 
COc1ccc(NC(=S)NCCc2c(C)[nH]c3ccc(OC)cc23)cc1 | inconclusive: 50.1 µM [inhibitor, partial curve, poor fit] | 
Cc1cc(=O)n(Cc2ccccc2)c(O)c1C#N | active: 17.8 µM | 
COc1ccc(CCN2CCCC(CN(C)Cc3cccc(OC)c3)C2)cc1 (stereo not given) | inconclusive: 44.7 µM [inhibitor, partial curve] | 
COc1ccc(N2CCN(c3oc(COc4ccccc4Cl)nc3C#N)CC2)cc1 | inconclusive: 8.91 µM [inhibitor, full curve, poor fit] | 
CCOc1ccc(NC(=O)c2ccc3ccccc3n2)cc1 | inconclusive: 31.6 µM [inhibitor, partial curve, poor fit] | 
O=[N+]([O-])c1ccc(N2CCCCC2)s1 | inconclusive: 44.7 µM [inhibitor, partial curve] | 
CCOC(=O)C1=C(c2ccccc2)NC(N)=NC1c1ccc(OCc2ccc(Cl)cc2)c(OC)c1 (stereo not given) | inconclusive: 50.1 µM [inhibitor, partial curve, poor fit] | 
CSc1ccc(NC(=O)Cc2cc(Cl)c3c(c2)OCCCO3)cc1 | inactive | 
Oc1ccc(CNc2ccccc2F)c2cccnc12 | inconclusive: 891 nM [inhibitor, full curve, poor fit] and active: 2.24 µM | 
Cn1c(=O)c2c(=O)cc(NNC(=O)CC#N)[nH]c2n(C)c1=O | inconclusive: 8.91 µM [inhibitor, full curve] | 
CN1CCN(C(=O)c2cccc(S(=O)(=O)N3CCCCC3)c2)CC1 | inactive | 
COc1ccccc1N1CCN(CC(=O)Nc2ccc(CN3CCCCC3)cc2)CC1 | inconclusive: 0.631 µM [inhibitor, full curve, poor fit] | 

SMILES | Potency | activity change, negative = inhibition
CSc1cccc(Nc2cc(C(=O)NCCCN(C)c3ccccc3)c3ccccc3n2)c1 | inconclusive: 126 µM [inhibitor, partial curve, poor fit] | 
Cc1ccc(C(CNC(=O)c2cccs2)N2CCCCC2)o1 (stereo not given) | inactive | 
COC(=O)c1c(NC(=O)CCNCc2ccco2)sc2c1CCC2 | inconclusive: 5.01 µM [inhibitor, full curve] | 
COc1ccc(-n2c(=S)[nH]c3cc(C(=O)Nc4ccc(C)c(F)c4)ccc3c2=O)c(OC)c1 | inconclusive: 39.8 µM [inhibitor, partial curve, poor fit] | 
COc1ccc(OC)c(CNC(=O)c2cc3c(s2)-c2c(C)cccc2OC3)c1 | inactive | 
CCC(=O)Nc1nc2ccccc2n1CCN(C)C | inconclusive: 3.16 µM [inhibitor, full curve] | 
COc1ccc(NC(=O)Cn2c(=O)n(Cc3nc(-c4ccccc4)no3)c(=O)c3ccccc32)cc1Cl | inconclusive: 50.1 µM [inhibitor, partial curve, poor fit] | 
O=[N+]([O-])c1ccc(OC/C=C2\Oc3ccc([N+](=O)[O-])cc3C2N2CCOCC2)cc1 (stereo not given) | inactive | 
Cc1cc(C)c(NC(=O)Cc2c[nH]c3ccccc23)c(Cl)c1 | inconclusive: 112 µM [inhibitor, single point] | 
CCO[C@H]1OC(C(=O)N2CCN(Cc3ccc4c(c3)OCO4)CC2)=C[C@@H](c2ccc(Br)cc2)[C@@H]1CCCO | inconclusive: 50.1 µM [inhibitor, partial curve, poor fit] | 
CCCCNC(=S)Nc1cccc(C)c1 | inactive | 
CC(NC(=S)NCc1ccc(F)cc1)c1ccncc1 (stereo not given) | inactive | 
O=C(NC1CCCC1)c1sc(=S)n2c1[nH]c(=O)c1ccccc12 | inconclusive: 70.8 µM [inhibitor, partial curve, poor fit] | 
O=C(CCc1cccc(F)c1)NC1CC2CC1C1CCCC21 (stereo not given) | inconclusive: 100 µM [inhibitor, single point] | 
NC(CO)C(=O)NNCc1ccc(O)c(O)c1O (stereo not given) | inactive | 
CC1OC(CC(=O)O)CC2=C1C(=O)c1c(O)cccc1C2=O (stereo not given) | inconclusive: 44.7 µM [inhibitor, partial curve, poor fit] | 
COc1ccc(-c2c(NC(=O)CC(C)C)oc3c(C)cccc3c2=O)cc1 | inactive | 
Cc1cc(S(=O)(=O)N2CCCC(Cn3cnc4cccnc43)C2)ccc1F (stereo not given) | inactive | 
CCCn1c(N)c(C(=O)CSc2nc3ncc(Cl)cc3[nH]2)c(=O)[nH]c1=O | inconclusive: 112 µM [inhibitor, single point] | 
COc1ccc(NC(=O)C2CCCN(S(=O)(=O)c3ccc(Br)s3)C2)cc1 (stereo not given) | inconclusive: 56.2 µM [inhibitor, partial curve, poor fit] | 
CCCc1cc(C(=O)N/N=C/c2ccc(CC)s2)c2ccccc2n1 | inactive | 
CCn1nnc2cc(C(=O)NCCc3ccccc3F)ccc21 | inconclusive: 15.8 µM [inhibitor, full curve, poor fit] | 
N#Cc1cc2sc3nnc(-c4ccncc4)n3c2cc1C#N | inactive | 
FC(F)(F)c1ccccc1CNCc1ccco1 | inconclusive: 17.8 µM [inhibitor, full curve] | 

SMILES | Potency | activity change, negative = inhibition
Brc1cccc(Cn2c(-c3cncs3)nc3ccccc32)c1 | inconclusive: 70.8 µM [inhibitor, partial curve, poor fit] | 
O=C(Cc1cccs1)N1CCCCCC1c1nc(C2CC2)no1 (stereo not given) | inconclusive: 25.1 µM [inhibitor, partial curve] | 
CCOC(=O)c1c(-c2ccccc2)csc1NC(=S)NC | inconclusive: 44.7 µM [inhibitor, partial curve, poor fit] | 
CC1=CN2C(=N)/C(=C\c3cn(CCCOc4ccccc4)c4ccccc34)C(=O)N=C2S1 | inconclusive: 56.2 µM [inhibitor, partial curve, poor fit] | 
CCCC1CCC(c2ccc(C(=O)O)cc2)CC1 (stereo not given) | inactive | 
CNC(=O)N1CCC(C2CCN(Cc3ccncc3)C2)CC1 (stereo not given) | inconclusive: 8.91 µM [inhibitor, partial curve] | 
O=C(NCc1ccco1)C1(c2ccc(Cl)cc2)CCCC1 | inconclusive: 158 µM [inhibitor, partial curve, poor fit] | 
CCCn1c(SCC(=O)c2cc(OC)ccc2OC)nnc1C(C)C | inconclusive: 39.8 µM [inhibitor, partial curve, poor fit] | 
O=C(NC(=S)Nc1nc(-c2ccccc2)cs1)c1cccs1 | inactive | 
CCOC(=O)Cc1nnc2c(Nc3ccc(Cl)cc3)nc3nonc3n12 | inconclusive: 50.1 µM [inhibitor, partial curve, poor fit] | 
Cc1ccc2c(c1)C1CN(C)CCC1N2Sc1ccccc1[N+](=O)[O-] (stereo not given) | inconclusive: 89.1 µM [inhibitor, partial curve, poor fit] | 
COc1ccc(/C(O)=C2\C(=O)C(=O)N(c3cc(C)on3)C2c2ccccc2OC)cc1C (stereo not given) | inconclusive: 12.6 µM [inhibitor, partial curve, poor fit] | 
COc1cccc(NC(=O)c2cc(-c3ccc(C)o3)nc3ccccc23)c1 | inactive | 
CCc1nc(SCC(=O)N2CCc3ccccc32)c2oc3ccccc3c2n1 | inactive | 
CC(C)c1ccc(Nc2cc(C(=O)NC3CCCCC3)c3ccccc3n2)cc1 | inactive | 
COc1ccccc1NC(=O)CSc1nc(-c2ccc(C(C)(C)C)cc2)c(C#N)c(=O)[nH]1 | inconclusive: 50.1 µM [inhibitor, partial curve, poor fit] | 
Cc1cccc(OCCC(=O)NO)c1 | inconclusive: 17.8 µM [inhibitor, full curve, poor fit] | 
Cc1ccc(OCCNC(=O)CCC(=O)N2CCOCC2)cc1 | inactive | 
Cc1cccc(N2CCN(CCNC(=O)Nc3ccc(Cl)cc3)CC2)c1C | inconclusive: 50.1 µM [inhibitor, partial curve, poor fit] | 
O=S1(=O)NCC2(CCCN(CCc3ccccc3)C2)Oc2ncccc21 (stereo not given) |  | inactive: -13.7% [at 6.33 µM]
COc1ccc(OCc2nnc(SCC(=O)NC3CC3)n2C)cc1 | inactive | 
S=C(NCCc1ccccc1)N/N=C/c1cccs1 | inconclusive: 50.1 µM [inhibitor, partial curve, poor fit] | 
